These are yes or no findings as the source states them, for the method shown. A result given as binding can be weak or reduced; the word gives no strength.
Columns and labels:
Test in all cases: ELISA with the human DLL3 ECD fragment proteins del0 to del6, OD405
del2 = target: del2
del1 = target: del1
del4 = target: del4
del3 = target: del3
del5 = target: del5
del6 = target: del6

Measured: binding

B1: DLA0126 (antibody, human IgG1, V domains shown)
VH: QSVEESGGRLVTPGTPLTLTCTVSGFSLSRYAMSWVRQAPGKGLEWIGIITGGGDPYYASWAKGRFTISKTSTTMDLKITSPTTEDTATYFCARMIGSEYASSSEYYDAFDPWGPGTLVTVSS
VL: ALVMTQTPSSVSAAVGGTVTINCQASQNIYSNLAWYQQKPGQRPKLLIYGASNLESGVPSRFKGSGSGTEYTLTISDLECDDAAIYYCQSAYYTTSVDVLYPFGGGTEVVVK
binds: del2 | del1 | del4 | del3

B2: DLA0316 (antibody, human IgG1, V domains shown)
VH: QEQLVESGGGLVQPGGSLKLSCKVSGFDFSNYGVSWVRQAPGKGLEWIGYIDPAFGRTYYASWVNGRFTISSHNAQNTLYLQLNSLTAADTATYFCVRVALVVAGVAYYGMDVWGPGTLVTVSS
VL: DVVMTQTPASVEAAVGGTVTINCQASQNIYSYLSWYQQKPGQPPKLLIYRTSTLASGVPSRFKGSGSGTQFTLTISDLECADAATYYCQSYYYSSGSSYGAFAFGGGTEVVVK
binds: all assays above

B3: DLA0379 (antibody, human IgG1, V domains shown)
VH: QSLEESGGRLVTPGTPLTLTCTASGFSLNTYHMIWVRQAPGKGLEWIGIVDSGGSTYYASWAKGRFTISRTSTTVDLKATSLTTEDTATYFCARGGSWDGFNIWGPGTLVTVSS
VL: DVVMTQTPSSVSAAVGGTVTINCQSSQSVYNSDFLAWYQQKPGQPPKLLIYAASTLASGVPSRFKGSGSGTQFTLTISDLECDDAATYYCQGTYEDVGWFNDFGGGTEVVVK
binds: del1

B4: DLA0106 (antibody, human IgG1, V domains shown)
VH: QSVEESGGRLVTPGTPLTLTCTVSGIDLSSYAMSWVRQAPGKGLEWIGIISNSGSGFYANWAKGRFTISKTSSTTVDVKISSPTTEDTATYFCARVFDADSSGYYYYGMDPWGPGTLVTVSS
VL: DVVMTQTPSSVSEPVGGTVTIKCQASEDIESYLAWYQQKPGQPPKLLIYAASTLASGVSSRFRGSGSGTEYTLTISDLECADAATYYCQSTYYDSSGVDWAFGGGTEVVVK
binds: del2 | del1 | del4 | del3

B5: DLA0580 (antibody, human IgG1, V domains shown)
VH: QEQLVESGGGLVQPGASLTLTCKASGFDFTSNAMCWVRQAPGKGPEWIACIYNDDGSAYSASWAKGRFTVSKTSSTAVTLQVTGLTAADTATYFCARSPYYTYGGAPSAYASGYFNLWGPGTLVTVSS
VL: DIVMTQTPASVEAAVGGTVTIKCQASENIYNSLAWYQQKPGQPPKLLMHDASVLTSGVPSRFSGSGYGTEFTLTISDLECADAATYYCQSDYYSTGGSYGFAFGGGTEVVVK
binds: del2 | del1 | del4 | del3

B6: DLA0641 (antibody, human IgG1, V domains shown)
VH: QEQLVESGGGLVQPGASLTLTCKASGFSFNTSYCPCWVRQVPGKGPEWIACIDAGYSGATWYANWAKGRFTISKTSSTTVTLQMTSLTGADTATYFCVRCDAAGSGAFNLWGPGTLVTVSS
VL: AYDMTQTPASVEVPVGGTVTIKCQASQSIYSYLSWYQQKPGQPPKLLIYEASKLTSGVPSRFSGSGSGTEFTLTISGVQCDDAATYYCQQGSGYMDVDNVFGGGTEVVVK
binds: all assays above

B7: DLA0769 (antibody, human IgG1, V domains shown)
VH: QEQLVESGGGLVQPEGSLTLTCTASGFSFSSSGYMCWVRQAPGKGLEWIACISGGSSGDTDYANWAKGRFSISKTSSTTVTLQMTSLTVADTATYFCARDVYIDSTIFNFNLWGPGTLVTVSS
VL: QVLTQTPSPVSAAVGGTVTISCQASQSVYNNNNLAWYQQKPGQPPKLLIYAASSLASGVPSRFKGSGAGTQFTLTISDLECDDAATYYCQGTYYSSGWYSTFGGGTEVVVK
binds: all assays above

B8: DLA0841 (antibody, human IgG1, V domains shown)
VH: QEQLVESGGGLVQPEGSLTLTCTASGFSFSSSYDMCWVRQAPGKGPEWIACIYTGDGSTDYASWAKGRFTVSKASSTTVTLQMTSLAVADTATYFCARNSGYGYFGLWGPGTLVTVSS
VL: QVLTQTPSPVSAAVGGTVTISCQSTESVYGSDWLSWYQQKPGQPPKVLIYQASNLEIGVPSRFKGSGSGTQFTLTISGAQCDDAATYYCQGYYSGYIYAFGGGTEVVVK
binds: all assays above

From patent US20240150465A1
